Reference: US12415868 (MINERVA BIOTECHNOLOGIES, dated 2025)
Results are given in words; binding and its absence hold for the method and conditions named. Binding seen in cells or lysates may run through a third protein. Some binding calls cover weakened binding; strength is not graded here.

The chains behind the UniProt entries cited, without tags or fusion partners. Where a name states a change or a piece, a line headed by the entry shows the natural chain unless it says otherwise.
UniProt P15941: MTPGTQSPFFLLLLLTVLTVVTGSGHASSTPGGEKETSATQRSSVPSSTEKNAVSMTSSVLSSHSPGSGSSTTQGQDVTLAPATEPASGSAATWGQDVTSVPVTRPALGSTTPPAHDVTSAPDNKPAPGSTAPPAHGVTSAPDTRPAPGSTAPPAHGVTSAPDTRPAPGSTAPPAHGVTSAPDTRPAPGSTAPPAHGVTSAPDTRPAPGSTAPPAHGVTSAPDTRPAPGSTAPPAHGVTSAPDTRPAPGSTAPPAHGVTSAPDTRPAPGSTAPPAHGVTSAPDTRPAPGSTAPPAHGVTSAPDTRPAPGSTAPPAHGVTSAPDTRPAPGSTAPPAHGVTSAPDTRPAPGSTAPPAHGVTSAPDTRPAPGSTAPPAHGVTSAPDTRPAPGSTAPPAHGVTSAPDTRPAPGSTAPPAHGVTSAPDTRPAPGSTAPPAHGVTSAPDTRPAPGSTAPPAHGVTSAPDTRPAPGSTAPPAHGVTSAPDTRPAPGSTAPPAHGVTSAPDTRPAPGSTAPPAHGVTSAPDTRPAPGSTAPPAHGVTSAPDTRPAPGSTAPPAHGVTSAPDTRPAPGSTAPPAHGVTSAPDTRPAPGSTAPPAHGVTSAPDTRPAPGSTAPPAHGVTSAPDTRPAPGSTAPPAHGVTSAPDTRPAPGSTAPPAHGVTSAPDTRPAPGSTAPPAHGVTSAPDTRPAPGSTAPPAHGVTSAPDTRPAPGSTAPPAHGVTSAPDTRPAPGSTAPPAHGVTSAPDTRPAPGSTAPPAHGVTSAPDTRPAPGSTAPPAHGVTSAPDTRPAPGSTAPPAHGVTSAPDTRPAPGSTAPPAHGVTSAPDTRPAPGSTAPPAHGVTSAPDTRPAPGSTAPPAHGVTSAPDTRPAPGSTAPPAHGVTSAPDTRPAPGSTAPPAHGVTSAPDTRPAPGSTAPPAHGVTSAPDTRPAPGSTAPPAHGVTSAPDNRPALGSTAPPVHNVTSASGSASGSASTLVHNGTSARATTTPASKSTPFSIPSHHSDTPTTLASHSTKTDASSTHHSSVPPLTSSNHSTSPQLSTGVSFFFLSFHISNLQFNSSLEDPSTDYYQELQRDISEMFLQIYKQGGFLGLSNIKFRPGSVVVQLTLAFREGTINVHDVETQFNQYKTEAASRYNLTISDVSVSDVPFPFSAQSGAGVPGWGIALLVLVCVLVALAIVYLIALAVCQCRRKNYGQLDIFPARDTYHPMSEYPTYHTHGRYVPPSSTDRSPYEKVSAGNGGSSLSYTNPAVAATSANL
UniProt Q9Y5B8: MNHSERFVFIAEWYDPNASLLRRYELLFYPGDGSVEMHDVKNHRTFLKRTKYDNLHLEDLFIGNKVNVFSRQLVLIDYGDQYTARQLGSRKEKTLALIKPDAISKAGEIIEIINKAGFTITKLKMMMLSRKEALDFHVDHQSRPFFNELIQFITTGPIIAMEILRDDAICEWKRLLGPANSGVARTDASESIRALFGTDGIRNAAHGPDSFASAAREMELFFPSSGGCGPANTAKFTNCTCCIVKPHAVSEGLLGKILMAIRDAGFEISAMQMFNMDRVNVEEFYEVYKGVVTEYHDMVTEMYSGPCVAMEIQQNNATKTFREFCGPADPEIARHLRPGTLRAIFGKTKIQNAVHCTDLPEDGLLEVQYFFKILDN

Experiments:
[1] = target: MUC1* growth factor receptor (Homo sapiens (Human)) (UniProt P15941); assay: pull-down assays, ELISAs and nanoparticle binding experiments
[2] = target: MUC1* growth factor receptor (Homo sapiens (Human)) (UniProt P15941); assay: co-immunoprecipitation with Ab-5 from T47D and human stem cell extracts, Western blot
[3] = target: MUC1* growth factor receptor (Homo sapiens (Human)) (UniProt P15941); assay: co-immunoprecipitation from iPS7 and HES3 stem cell extracts with Ab-5, Western blot (FIG. 23)
[4] = target: MUC1* growth factor receptor (Homo sapiens (Human)) (UniProt P15941); assay: co-immunoprecipitation from T47D cell extracts with anti-MUC1 cytoplasmic tail antibody Ab-5, Western blot (FIG. 22)
[5] = target: MUC1* growth factor receptor (Homo sapiens (Human)) (UniProt P15941); assay: co-immunoprecipitation with Ab-5, Western blot (FIG. 22, FIG. 23)

binding [1]	binding [2]	binding [3]	binding [4]	binding [5]	Substance
binds	–	–	–	–	full-length human NME7 (from UniProt Q9Y5B8 1-376)
–	binds	binds	binds	binds	human NME7-X1 (from UniProt Q9Y5B8 125-376) (ligand)
binds	–	–	–	–	recombinant human NME7AB (from UniProt Q9Y5B8 92-376) (ligand)
